“And” between values parts separate entries of the source, which are not always exact repeats. Equal values may be shown once.
Experiment: In vitro nitric oxide production: nitrite quantification by Griess reaction with L-cysteine
Conditions: 1 h at 37 °C, pH 7.4 buffered water, 1:50 molar excess of L-cysteine, compound 10^−4 M, mean ± SEM
For “3-((2-(3-Hydroxybenzoyl)hydrazono)methyl)-4-methyl-1,2,5-oxadiazole 2-oxide [Compound 3a]”, the “NO Release Data %NO2− (mol/mol), 50 × 10^−4 M L-Cys” value (“NO Release Data %NO2− (mol/mol)” below) was 2.0 ± 0.7%. With O=C(NN=Cc1c(-c2ccccc2)no[n+]1[O-])c1cccc(O)c1 [Compound 8a, 3-((2-(3-Hydroxybenzoyl)hydrazono)methyl)-4-phenyl-1,2,5-oxadiazole 2-oxide] the “NO Release Data %NO2− (mol/mol)” value was 7.6 ± 1.2%. With CC(=O)Oc1ccccc1C(=O)Oc1ccc(C(=O)N/N=C/c2ccc3c(c2)no[n+]3[O-])cc1 [Compound 14b, (E)-5-((2-(4-((2-Acetoxybenzoyl)oxy)benzoyl)hydrazono)methyl)benzo[c][1,2,5]oxadiazole 1-oxide] the “NO Release Data %NO2− (mol/mol)” value was 0%. With O=C(NN=Cc1ccc2c(c1)no[n+]2[O-])c1ccc(O)cc1 [Compound 13b, 5-((2-(4-Hydroxybenzoyl)hydrazono)methyl)benzo[c][1,2,5]oxadiazole 1-oxide] the “NO Release Data %NO2− (mol/mol)” value was 0%. For “3-((2-(4-Hydroxybenzoyl)hydrazono)methyl)-4-methyl-1,2,5-oxadiazole 2-oxide [Compound 3b]”, the “NO Release Data %NO2− (mol/mol)” value was 1.9 ± 1.1%. For CC(=O)Oc1ccccc1C(=O)Oc1ccc(C(=O)N/N=C/c2c(-c3ccccc3)no[n+]2[O-])cc1 [Compound 9b, (E)-3-((2-(4-((2-Acetoxybenzoyl)oxy)benzoyl)hydrazono)methyl)-4-phenyl-1,2,5-oxadiazole 2-oxide], the “NO Release Data %NO2− (mol/mol)” value was 7.9 ± 1.3%. For CC(=O)Oc1ccccc1C(=O)Oc1cccc(C(=O)N/N=C/c2ccc3c(c2)no[n+]3[O-])c1 [Compound 14a, (E)-5-((2-(3-((2-Acetoxybenzoyl)oxy)benzoyl)hydrazono)methyl)benzo[c][1,2,5]oxadiazole 1-oxide], the “NO Release Data %NO2− (mol/mol)” value was 0%. For “5-((2-(3-Hydroxybenzoyl)hydrazono)methyl)benzo[c][1,2,5]oxadiazole 1-oxide [Compound 13a]”, the “NO Release Data %NO2− (mol/mol)” value was 0%. In the case of “(E)-3-((2-(3-((2-Acetoxybenzoyl)oxy)benzoyl)hydrazono)methyl)-4-methyl-1,2,5-oxadiazole 2-oxide [Compound 4a]”, the “NO Release Data %NO2− (mol/mol)” value was 2.2 ± 0.4%. With CC(=O)Oc1ccccc1C(=O)Oc1cccc(C(=O)N/N=C/c2c(-c3ccccc3)no[n+]2[O-])c1 [Compound 9a, (E)-3-((2-(3-((2-Acetoxybenzoyl)oxy)benzoyl)hydrazono)methyl)-4-phenyl-1,2,5-oxadiazole 2-oxide] the “NO Release Data %NO2− (mol/mol)” value was 7.0 ± 0.8%. For CC(=O)Oc1ccccc1C(=O)O [ASA, acetylsalicylic acid, reference compound], the “NO Release Data %NO2− (mol/mol)” value was 0%. With “(E)-3-((2-(4-((2-Acetoxybenzoyl)oxy)benzoyl)hydrazono)methyl)-4-methyl-1,2,5-oxadiazole 2-oxide [Compound 4b]” the “NO Release Data %NO2− (mol/mol)” value was 1.8 ± 1.7%. With O=C(NN=Cc1c(-c2ccccc2)no[n+]1[O-])c1ccc(O)cc1 [Compound 8b, 3-((2-(4-Hydroxybenzoyl)hydrazono)methyl)-4-phenyl-1,2,5-oxadiazole 2-oxide] the “NO Release Data %NO2− (mol/mol)” value was 7.5 ± 0.9%. With O=[N+]([O-])O[C@H]1CO[C@H]2[C@@H]1OC[C@H]2O[N+](=O)[O-] [DNS, Isosorbide dinitrate, reference compound] the “NO Release Data %NO2− (mol/mol)” value was 10.5% and 10.5 ± 0.7%.

From publication PMC6332090, “Synthesis and Preliminary Evaluation of N-Oxide Derivatives for the Prevention of Atherothrombotic Events” (Molecules, 2015)
